From PubChem BioAssay AID2685 (National Center for Advancing Translational Sciences (NCATS), 2010) come the findings set out here.

The nature of this assay: qHTS Assay for Lipid Storage Modulators in Drosophila S3 Cells.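 On cell number change: cells counted by Cell Tracker Red CMTPX staining in the red channel.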 The conditions noted are these: BODIPY lipid droplet fluorescence, 18-24 h; for cell number change: measured here: cell count max response, cells fed with added oleic acid. The procedure, abridged: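 Laser-scanning cytometry quantifies lipid droplet accumulation (500–530 nm total intensity; droplet/cell object ratio) in oleic acid-fed (400 uM added) Drosophila S3 cells treated with a concentration series. 20 uM Triacsin C defined 100% inhibition.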
(In general: Quantitative high-throughput screening tests each substance at several concentrations.)

Setting [1] is: measured here: lipid fluorescence (Fed channel) AC50, cells fed with added oleic acid.
The mark [2] stands for this setting: measured here: cell number channel AC50, cells fed with added oleic acid.

This is one part of the list. The main result of the screen is listed elsewhere. These columns were measured beside it and carry no call. The list favours compounds with an active or inconclusive main result. The note in brackets gives the kind of curve behind each potency; many fits are weak.

Regarding `COC(=O)c1c(C)oc2ccc(OC(=O)c3cccs3)cc12`, the cell number change was -19.3%.

As for `CC1Cc2ccccc2N1Cc1nc2scc(-c3cccs3)c2c(=O)[nH]1` (stereo not given), the cell number change was -13.2%. For the same compound, the AC50 (as a rule, the concentration giving half of the maximal activity seen) under setting [1] is 20.6 µM [rising, single point].

As for `Cc1ccc2nc(N3CCN(C(=O)CCCC(=O)O)CC3)nc(-c3ccccc3)c2c1`, the cell number change was determined as 27%. Also, the AC50 under setting [1] is 29.1 µM [falling, single point].

As for `CN(CC(=O)Nc1ccc(F)cc1)C(=O)COC(=O)CN1C(=O)NC2(CCCC2)C1=O`, the cell number change was -1.47%.

For the compound `Cc1cc(SCC(=O)NCCN2C(=O)CSC2=O)nc2c(C)cccc12`, the cell number change is 45.6%. The AC50 under setting [2] was 16.4 µM [rising, single point].

On to `COc1cc(/C=C2/C(=N)N3C=CSC3=NC2=O)ccc1OCCCOc1ccccc1C`, for which the cell number change was -27.5%. Further, the AC50 under setting [1] is 29.1 µM [falling, single point].

As to `c1ccc(CNc2ncnc3sc4c(c23)CCC4)nc1`, the cell number change is -18.7%.

As for `COc1cc(/C=C2/C(=N)N3OC(C)=CC3=NC2=O)ccc1OC(=O)c1ccco1`, the cell number change is 10.6%.

`CCn1ncc(CNC(=O)CCCSc2nc(-c3ccco3)cc(C(F)(F)F)n2)c1C`: the cell number change was -19.1%. Besides, the half-maximal activity concentration (AC50) under setting [1] was 29.1 µM [falling, single point].

For the compound `CC1CCCN(CCCNC(=O)c2nn(C)c3c2CSc2ccccc2-3)C1` (stereo not given), the cell number change amounted to 9.48%. Besides, the AC50 under setting [1] is 3.66 µM [falling, single point].

As to `CCn1cc(S(=O)(=O)c2ccc(C)cc2)c(=O)c2cc(F)c(N3CCN(C)CC3)cc21`, the cell number change stood at 20.2%. In addition, the half-maximal activity concentration (AC50) under setting [1] was 6.51 µM [falling, single point].

With `CCn1c(SCC(=O)OC)nc2sc3c(c2c1=O)CCC3`, the cell number change is -16.1%.

As for `CCC(CC)C(=O)Nc1cccc(/C(C)=N/NC(=O)c2c(Br)cnn2C)c1`, the cell number change was -9.07%.

As to `Cc1cc(=O)n2[nH]c(NCc3ccccc3F)nc2n1`, the cell number change is -11.3%. Besides, the AC50 under setting [1] was 29.1 µM [falling, single point].

Consider `O=C(Nc1ccccc1)Nc1ccc(S(=O)(=O)N2CCCCC2)cc1`, for which the cell number change is -89.1%.

Turning to `CCc1nc(NC(C)(C)C)c2cnn(-c3ccccc3)c2n1`, the cell number change was -32.4%. The AC50 under setting [2] was 0.651 µM [falling, full curve]. The AC50 under setting [1] is 0.58 µM [falling, single point].

Regarding `CCc1cccc(CC)c1NC(=S)N1CCn2cccc2C1c1ccncc1` (stereo not given), the cell number change is -0.221%. In addition, the half-maximal activity concentration (AC50) under setting [2] is 4.11 µM [rising, single point].

Take `COc1ccc(-c2noc(C3CCCN(C(=O)c4cccc(C)c4)C3)n2)cc1` (stereo not given): the cell number change was -15.7%.

As for `COc1ccc(NC(=O)CN(C)C(=O)/C=C/c2cn(Cc3ccccc3)nc2-c2cccnc2)cc1`, the cell number change was 30.3%. Moreover, the concentration at half-maximal activity (AC50) under setting [2] was 14.6 µM [rising, partial curve, poor fit]. Also, the AC50 under setting [1] is 9.2 µM [rising, partial curve, poor fit].

For the compound `COC(=O)c1ccc(COC(=O)c2ccc(N(C)C)cc2)cc1`, the cell number change was -28.4%. For the same compound, the AC50 under setting [1] is 14.6 µM [rising, single point].

Consider `CCCCn1c(N)c(N(CC(C)C)C(=O)CN(C)S(=O)(=O)c2ccc(F)cc2)c(=O)[nH]c1=O`, for which the cell number change is 27%.

With `CCOc1ccccc1Nc1nc(N)nc(CN(C)C2CCCCC2)n1`, the cell number change is -10.6%. Further, the AC50 under setting [1] is 0.116 µM [falling, single point].

As for `CN(/N=C/c1ccc(O)cc1O)c1ncc(C(F)(F)F)cc1Cl`, the cell number change is -49.4%. Further, the AC50 under setting [2] is 18.4 µM [falling, single point]. Further, under setting [1], the concentration at half-maximal activity (AC50) is 16.4 µM [falling, partial curve].

Consider `O=C(Nc1ccc(F)cc1)c1ccc(CSc2ccc(Cl)cc2)o1`, for which the cell number change was -2.51%. For the same compound, under setting [1], the AC50 was 29.1 µM [rising, single point].

Turning to `O=C(O)c1ccccc1/C=N/Nc1nc(N2CCCCC2)nc(N2CCCCC2)n1`, the cell number change is -15.6%. Also, under setting [1], the AC50 is 29.1 µM [falling, single point].

As for `COc1ccc(-c2cn(CCC(=O)O)c(-c3ccc(Cl)nc3)n2)cc1`, the AC50 under setting [1] was 0.092 µM [rising, full curve, poor fit].

Take `Cc1ccc(N=CC=C2OC(C)(C)C(C)(C)O2)c(C)c1`: the cell number change is -2.84%. In addition, the half-maximal activity concentration (AC50) under setting [2] was 0.146 µM [rising, partial curve, poor fit]. Under setting [1], the AC50 was 29.1 µM [falling, single point].

With `CCOc1ccc(C(=O)NCC(=O)OCC(=O)N2C(C)CCCC2C)cc1` (stereo not given), the cell number change worked out at 2.96%.

Consider `Cc1ccc(N(CC(=O)N2CCOCC2)S(C)(=O)=O)cc1C`, for which the cell number change was determined as 16.5%.

As to `COC(=O)C1=C(C(=O)OC)[C@@H]2N(Cc3ccccc3)c3ccccc3[C@@]23C[C@@H](C(=O)OC)N(C(=O)COCc2ccccc2)C3=N1`, the cell number change is -33.2%. In addition, the AC50 under setting [2] is 29.1 µM [falling, single point]. The AC50 under setting [1] is 29.1 µM [falling, single point].

Regarding `CN1CCN(C(=O)CCCOc2cc(=O)n(C)c3ccccc23)CC1`, the cell number change stood at 48.7%. Under setting [2], the AC50 was 7.31 µM [rising, partial curve]. Further, the AC50 under setting [1] was 1.64 µM [rising, partial curve].

With `Nn1c(SCC(=O)Nc2nccs2)nnc1-c1ccco1`, the cell number change is -7.58%. Also, under setting [1], the concentration at half-maximal activity (AC50) is 6.51 µM [falling, partial curve, poor fit].

For `COC(=O)c1c(NS(=O)(=O)Cc2ccccc2)sc2c1CCCC2`, the cell number change is -34.9%. In addition, the AC50 under setting [2] is 29.1 µM [falling, single point]. For the same compound, the AC50 under setting [1] is 23.1 µM [falling, single point].

For the compound `CC(C)c1cccc(C(C)C)c1NC(=O)COC(=O)c1ccc(OCC(=O)Nc2cccc(C(F)(F)F)c2)cc1`, the cell number change worked out at 7.21%. Besides, the AC50 under setting [1] was 0.13 µM [falling, partial curve, poor fit].

Consider `O=C(Nc1cccc(S(=O)(=O)N2CCOCC2)c1)c1cnccn1`, for which the cell number change amounted to 81.7%. Besides, the concentration at half-maximal activity (AC50) under setting [2] is 14.6 µM [rising, partial curve]. For the same compound, the AC50 under setting [1] was 6.51 µM [falling, single point].

Regarding `CCOC(=O)N1CCN(c2ccc(O)cc2)CC1`, the cell number change was -4.86%. Also, the AC50 under setting [1] was 0.651 µM [falling, partial curve, poor fit].

With `COc1ccc(C(=O)C[n+]2ccc3c(c2)nc(-c2cc(OC)c(OC)cc2OC)n3C)cc1`, the cell number change stood at 17.1%. For the same compound, the half-maximal activity concentration (AC50) under setting [1] was 6.51 µM [falling, single point].

For the compound `COc1ccc(CN=CC2=C(O)CNC2=O)cc1`, the cell number change was -5.19%. In addition, under setting [1], the concentration at half-maximal activity (AC50) was 16.4 µM [falling, single point].

As for `COc1ccc(Nc2nc(C)c(-c3ccccc3)s2)cc1`, the cell number change is -31.7%. Also, the AC50 under setting [2] was 5.17 µM [falling, full curve]. In addition, under setting [1], the half-maximal activity concentration (AC50) was 6.51 µM [falling, single point].

For the compound `O=C(CCC(=O)c1ccccc1)NCCOc1ccccc1`, the cell number change was 32.2%. Besides, the AC50 under setting [2] was 1.84 µM [rising, partial curve]. In addition, the half-maximal activity concentration (AC50) under setting [1] is 6.51 µM [falling, single point].

As to `CCc1nc(SCC(=O)N2CCCCC2)c2c(=O)n(C)c(=O)n(C)c2n1`, the cell number change is -16.6%. Moreover, the AC50 under setting [2] is 6.51 µM [falling, single point].

`CCC(C(=O)Nc1ccccc1OC)n1c(C(=O)OC)cc2ccsc21` (stereo not given): the cell number change is -11.1%. In addition, the half-maximal activity concentration (AC50) under setting [1] is 18.4 µM [falling, partial curve, poor fit].

Consider `CC/C(=N\NC(=O)c1cc(C2CC2)[nH]n1)c1ccccc1`, for which the cell number change is 23.9%. Further, the AC50 under setting [1] is 29.1 µM [rising, single point].

`COc1cccc(-c2c(-c3cc(OC)cc(OC)c3)n(C)c3ccc(Br)cc23)c1`: the cell number change amounted to 11.3%. Moreover, under setting [2], the AC50 is 0.259 µM [falling, full curve, poor fit]. For the same compound, under setting [1], the concentration at half-maximal activity (AC50) is 0.231 µM [falling, full curve].

For the compound `CSc1ccc(-c2sc(Nc3ccccc3)n[n+]2-c2ccccc2)cc1`, the cell number change is -2.69%. For the same compound, under setting [1], the AC50 was 16.4 µM [falling, single point].

As to `Cc1ccc2nc(C(F)C(F)(F)F)[nH]c2c1` (stereo not given), the cell number change came out at 4.97%. The AC50 under setting [1] is 3.26 µM [rising, partial curve].

Take `CCOC(=O)C1=C(C)NC(C)=C(C(=O)OCC)C1c1sccc1C`: the cell number change was -41.3%.

Take `CC(OC(=O)c1cccnc1Cl)C(=O)NCc1ccccc1` (stereo not given): the cell number change was -31.5%. In addition, the concentration at half-maximal activity (AC50) under setting [2] is 29.1 µM [falling, single point]. Besides, the half-maximal activity concentration (AC50) under setting [1] was 2.06 µM [rising, partial curve, poor fit].

As to `Cc1ccc(/C=C2\SC(=S)N(CCC(=O)NNC(=O)c3cccc(O)c3)C2=O)cc1`, the cell number change is -36.1%. In addition, under setting [2], the half-maximal activity concentration (AC50) is 29.1 µM [falling, single point]. For the same compound, the AC50 under setting [1] is 16.4 µM [falling, partial curve].

Take `C=CCn1c(-c2cccnc2)n[nH]c1=S`: the cell number change is 5.46%. Further, the AC50 under setting [1] is 1.64 µM [rising, partial curve].

For `COc1cc2c(cc1OC)C(c1ccc(-c3ccccc3Cl)o1)=NCC2`, the cell number change is 18%. Besides, under setting [2], the AC50 was 1.3 µM [rising, full curve]. Under setting [1], the AC50 is 2.06 µM [rising, partial curve].

For the compound `CC(C)CNC(=S)NC1CC2CCCC(C1)N2Cc1ccco1` (stereo not given), the cell number change is -29.5%. For the same compound, the AC50 under setting [1] is 25.9 µM [falling, partial curve, poor fit].

`CCOc1ccc2ccccc2c1/C=N/NC(=O)CNC(=O)Cc1ccccc1`: the cell number change was determined as 4.7%. Moreover, the AC50 under setting [2] was 6.51 µM [rising, single point].

Take `O=C(Nc1ccccc1)C1CCN(c2nccs2)CC1`: the cell number change is 6.82%. In addition, the AC50 under setting [2] was 0.517 µM [falling, single point]. Also, under setting [1], the AC50 was 0.13 µM [falling, full curve, poor fit].

As for `O=C1c2ccccc2NC(c2cccc(F)c2)N1Cc1ccccc1` (stereo not given), the cell number change amounted to 9.45%.

`O=C(Oc1ccc(Cl)c2cccnc12)N1CCCCC1`: the cell number change was -12.4%.

In the case of `S=C(NCc1cccnc1)Nc1cc(Cl)cc(Cl)c1`, the cell number change was found to be 5.27%.

For the compound `CCc1nccn1CCC(=O)N1CCCC(Nc2ccc(F)cc2)C1` (stereo not given), the cell number change was -11.9%. The AC50 under setting [1] was 29.1 µM [falling, single point].

Consider `COc1ccc(C2C(C#N)=C(N)Oc3c2c(-c2ccccc2)nn3-c2ccccc2)c(OC)c1OC` (stereo not given), for which the cell number change came out at 4.17%. Also, the AC50 under setting [1] is 3.66 µM [falling, single point].

For `CC(=O)Nc1ccc(S(=O)(=O)N2CCC(c3nc4ccc(C)cc4[nH]3)CC2)cc1`, the cell number change came out at 2.73%.

For `Cc1cc(C)nc(NC(=O)CSc2nn(C)c(=S)s2)n1`, the AC50 reads like this: under setting [2], 0.58 µM [rising, single point]; under setting [1], 0.58 µM [rising, single point].
